{"source": "patent US20190091218A1", "about": "(priority 2016, published 2019)", "origin": "cited, not measured here", "tested_on": "experimental rhinovirus infection", "note": "For at least one compound, name, drawing or mass did not settle the structure.", "data": [{"compound": "CC(C)(O)c1ccccc1CC[C@@H](SCC1(CC(=O)O)CC1)c1cccc(/C=C/c2ccc3ccc(Cl)cc3n2)c1", "note": "[montelukast]", "values": [{"measurement": "improving asthma control or cold symptom scores", "setting": "experimental rhinovirus infection", "value": "ineffective"}, {"measurement": "peak expiratory flow", "setting": "in vivo", "value": "not decreased"}, {"measurement": "percentage of sputum eosinophils", "setting": "recovery phase, elevated in placebo group", "value": "remained at baseline levels"}]}]}
